Source: PubChem BioAssay AID330 (DTP/NCI, 2004)
The list does not hold the whole screen: it gathers tests that were run many times, whatever their T/C, doses with no T/C, and many T/C values between a quarter and a half above the control. Further doses and runs are listed elsewhere. T/C gives the treated animals as a percentage of the vehicle group. Some entries give survivors of the animals treated and no T/C: the source holds a T/C of zero for them, seemingly a mark for toxic or unscored doses. Some doses without a T/C left all or most animals alive at the check, yet need not have been tolerated: survival well below the control is almost never listed, so the zero probably covers shortened survival too. Survivors were counted at the toxicity check, usually on the fifth day, unless a day is given; later deaths do not show. Schedule codes are those of the source, taken here to give the interval after Q, in days (D) or hours (H), and the number of doses after X. Some doses were run more than once; the values are given in rising order. For survival time, the PubChem record calls one and a half times the control and up active, and a quarter to a half above the control has no call in these data; cut-offs in other NCI protocols can differ.

Tested on: P388 leukemia ip, CD2F1 mice, survival T/C
Assay: NCI In Vivo Anticancer Drug Screen. Data for tumor model P388 Leukemia (intraperitoneal) in CD2F1 (CDF1) mice
Conditions: T/C endpoint: median survival time, higher T/C = longer survival
[1] = dose: 100.0 mg/kg/injection, schedule: Q01DX009 (ip), vehicle: Klucel (hydroxypropylcellulose) (HPC)
[2] = dose: 200.0 mg/kg/injection, schedule: Q01DX009 (ip), vehicle: Klucel (hydroxypropylcellulose) (HPC)
[3] = dose: 100.0 mg/kg/injection, schedule: Q01DX005 (ip), vehicle: saline with Tween-80
[4] = dose: 200.0 mg/kg/injection, schedule: Q01DX005 (ip), vehicle: saline with Tween-80
[5] = dose: 200.0 mg/kg/injection, schedule: Q01DX005 (ip), vehicle: saline

Compound: CCCCCC(=O)OCCN1CCN(CCCN2c3ccccc3Sc3ccc(C(F)(F)F)cc32)CC1
- survivor count (dose: 50.0 mg/kg/injection, schedule: Q01DX009 (ip), vehicle: Klucel (hydroxypropylcellulose) (HPC)): 3 of 6 and 5 of 6
- survivor count [1]: 4 of 6
- survivor count [2]: 0 of 6

Compound: OC1CC2CCC(N2)C1c1ccccc1 (stereo not drawn)
- survivor count [3]: 2 of 6
- survivor count [4]: 0 of 6

Compound: COC(=O)CCCN1CC2C=C(C#N)C1C(C(=O)OC)C2 (stereo not drawn)
- survivor count (dose: 240.0 mg/kg/injection, schedule: Q01DX005 (ip), vehicle: saline): 5 of 6

Compound: Cc1oc2c(C)c3oc(=O)cc(C)c3cc2c1CCl
- T/C (dose: 50.0 mg/kg/injection, schedule: Q04DX002 (ip), vehicle: saline with Tween-80): 125 % of control
- T/C (dose: 100.0 mg/kg/injection, schedule: Q05DX002 (ip), vehicle: saline with Tween-80): 132 % of control
- T/C (dose: 200.0 mg/kg/injection, schedule: Q05DX002 (ip), vehicle: saline with Tween-80): 136 % of control

Compound: CN=C(N)N/N=C/c1c2ccccc2c(C)c2ccccc12
- survivor count (dose: 100.0 mg/kg/injection, schedule: Q04DX002 (ip), vehicle: saline): 3 of 6

Compound: O=C1C(O)=C(Cl)C(=O)C(O)=C1Cl
- survivor count [5]: 2 of 6

Compound: CCOC(=O)C(CCc1ccc(N(CCCl)CCCl)cc1)(NC(C)=O)C(=O)OCC
- T/C [1]: 126 % of control
- survivor count [2]: 6 of 6

Compound: COc1ccc(OC)c2c(Cl)ccnc12
- survivor count (dose: 50.0 mg/kg/injection, schedule: Q01DX005 (ip), vehicle: saline with Tween-80): 0 of 6
- survivor count [3]: 0 of 6
- survivor count [4]: 0 of 6

Compound: CCC(CC)NCCNc1cc(OC)cc2cccnc12
- survivor count (dose: 100.0 mg/kg/injection, schedule: Q01DX005 (ip), vehicle: saline): 0 of 6
- survivor count [5]: 0 of 6
